No constants are given. Whether binding was seen depends on the method and setting.
Molecular target: T1, Ixonnexin (Ixodes scapularis) (UniProt Q4PMS3)
T1 sequence: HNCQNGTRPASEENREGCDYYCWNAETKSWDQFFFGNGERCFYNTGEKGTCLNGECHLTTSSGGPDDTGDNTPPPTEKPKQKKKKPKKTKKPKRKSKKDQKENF
Assay: SPR; Ixonnexin amine-coupled to a carboxymethylated dextran (CM5) chip, 726.2 RU; analytes injected 120 s at 30 µL/min, 25 °C, dissociation 600 s; global fit with the two-state (conformational change) model, Langmuir 1:1 for plasmin; both purified

In the case of low molecular weight urokinase (enzyme), the binding is reported as “no binding (tested: 15–250 nM)”.

— publication PMC5859130
